Source: patent US12637435B2, “Nitrogen-containing heterocyclic compound or salt thereof, use thereof, and intermediate thereof” (FUJIFILM Corporation, priority 2020, dated 2026)
At least one structure is not confirmed: it was looked up by name or label, or the drawing left a doubt.

System: HL60 subcutaneous tumor
Experiment: In vivo drug efficacy test in cancer-bearing mouse model with subcutaneous transplantation of HL60
Details: HL60 subcutaneous xenograft, female NOD/scid mice, oral 2.5 to 10 mg/kg once a day for 10 to 12 days
Description: (Drug Efficacy Test in Cancer-Bearing Mouse Model with Subcutaneous Transplantation of HL60)
The human acute myeloid leukemia cell line HL60 (available from JCRB) was suspended in a mixture of RPMI-1640 culture medium and Matrigel (available from Corning Inc.), and then subcutaneously transplanted into 6-week-old female NOD/scid mice (available from CLEA Japan, Inc.). The test compound was dispersed in a solvent (0.5% aqueous methylcellulose solution), and from the time when tumor engraftment was visually confirmed, the test compound was orally administered to mice at a dose of 2.5 to 10 mg/kg once a day for 10 to 12 days. A solvent administration group to which a 0.5% aqueous methylcellulose solution was administered was provided as a negative control. The tumor diameter was measured over time and the tumor volume was calculated. The tumor volume was calculated by measuring the major axis and the minor axis of the tumor and using the following expression. Tumor volume (mm^3)=[major axis (mm)×minor axis (mm)×minor axis (mm)]/2
T/C (%) was calculated from the average tumor volume of each group by the following expression, and the drug efficacy was evaluated. T/C (%)=(average tumor volume of drug-administered group)/(average tumor volume of solvent-administered group)×100%

For `CS(=O)(=O)NC(=O)c1nc(C2CC2)cnc1Nc1cccc(C2CCOCC2)c1OC(F)F` [Example 3-49], the “tumor growth inhibition rate (T/C from tumor volume)” value was “excellent tumor growth inhibition rate”.
